# Counter-ions that a name gives are not always drawn. ± gives the standard deviation of the averaged measurements. The list shows a part of the results. These are raw signals, not scaled to a control.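 Across three biological replicates, HeLa cells were imaged for ribosome assembly using ENP1 staining (export block present or absent) or inducible tagged ribosomal protein reporters. Machine learning classified each cell's signal localization relative to DMSO controls. Hits exceeded the DMSO false-positive mean by five standard deviations and were then visually confirmed.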
# System: HeLa K (ENP1 immunofluorescence, no LMB)
# Experiment: fraction of cells with nucleolar or nucleolar/nucleoplasmic ENP1 signal (MainHitrate); higher = more cells with nucleolar/nuclear readout signal (for ENP1 -LMB: less RNAPI inhibition; for +LMB ENP1 and RP reporters: stronger nuclear/nucleolar retention, i.e. ribosome biogenesis defect)
# Conditions: concentration: 1 µM; treatment time: 6 h; ENP1 -LMB; leptomycin B: none
row,SMILES,fraction
1,CN(C)C(=O)Oc1ccc[n+](C)c1 [Pyridostigmine Bromide (Mestinon)],0.9984 ± 0.0027
2,O=P1(N(CCCl)CCCl)NCCCO1 (stereo not drawn) [Cyclophosphamide monohydrate],0.9953 ± 0.0082
3,COc1cc2c(cc1OC)[C@@]13CCN4CC5=CCO[C@H]6CC(=O)N2[C@H]1[C@H]6[C@H]5C[C@H]43 [Brucine],0.9964 ± 0.0062
4,CC(C)NCC(O)c1ccccc1Cl (stereo not drawn) [Clorprenaline HCL],0.991 ± 0.015
5,C=C1CC[C@@]2(O)[C@H]3Cc4ccc(O)c5c4[C@@]2(CCN3CC2CC2)[C@H]1O5 [Nalmefene HCl],0.9968 ± 0.0056
6,CC(=O)O[C@@]12CO[C@@H]1C[C@@H](O)[C@@]1(C)C(=O)[C@H](O)C3=C(C)[C@@H](O)C[C@@](O)([C@@H](OC(=O)c4ccccc4)[C@H]21)C3(C)C [10-DAB (10-Deacetylbaccatin)],0.989 ± 0.02
7,CC[N+]1(C)CCCC(OC(=O)C(O)(c2ccccc2)c2ccccc2)C1 (stereo not drawn) [Pipenzolate Bromide],0.9964 ± 0.0063
8,[O-][n+]1ccccc1[S-].[O-][n+]1ccccc1[S-].[Zn+2] [Pyrithione zinc],0.992 ± 0.015
9,CC(C)C[C@H]1C(=O)N2CCC[C@H]2[C@]2(O)O[C@](NC(=O)[C@@H]3C=C4c5cccc6[nH]c(Br)c(c56)C[C@H]4N(C)C3)(C(C)C)C(=O)N12 [Bromocriptine Mesylate],0.9985 ± 0.0026
10,NCC1(CC(=O)O)CCCCC1 [Gabapentin (Neurontin)],0.993 ± 0.013

# Nothing new here: an excerpt of the list.
row,SMILES,fraction
2,O=P1(N(CCCl)CCCl)NCCCO1 (stereo not drawn) [Cyclophosphamide monohydrate],0.9953 ± 0.0082
3,COc1cc2c(cc1OC)[C@@]13CCN4CC5=CCO[C@H]6CC(=O)N2[C@H]1[C@H]6[C@H]5C[C@H]43 [Brucine],0.9964 ± 0.0062

# System: HeLa RPS2-YFP reporter
# Experiment: fraction of reporter-positive cells with nuclear (nucleolar or nucleolar/nucleoplasmic) RPS2-YFP (MainHitrate); higher = more cells with nucleolar/nuclear readout signal (for ENP1 -LMB: less RNAPI inhibition; for +LMB ENP1 and RP reporters: stronger nuclear/nucleolar retention, i.e. ribosome biogenesis defect)
# Conditions: concentration: 1 µM; treatment time: 6 h
row,SMILES,fraction of reporter-positive cells with nuclear
1,CC(C)c1c(CN(C)C(C)Cc2ccccc2)n(C)n(-c2ccccc2)c1=O (stereo not drawn) [Famprofazone],0.175 ± 0.14
2,CCC(COC(=O)c1cc(OC)c(OC)c(OC)c1)(c1ccccc1)N(C)C (stereo not drawn) [Trimebutine],0.0875 ± 0.059
3,CC(=O)O[C@H]1C[C@@H]2CC[C@@H]3[C@H](CC[C@@]4(C)[C@H]3C[C@H]([N+]3(C)CCCCC3)[C@@H]4OC(C)=O)[C@@]2(C)C[C@@H]1[N+]1(C)CCCCC1 [Pancuronium (Pavulon)],0.0981 ± 0.056
4,CC(C)N(CCC(C(N)=O)(c1ccccc1)c1ccccn1)C(C)C (stereo not drawn) [Disopyramide Phosphate],0.138 ± 0.16
5,CC[C@H]1CN2CCc3cc(OC)c(OC)cc3[C@@H]2C[C@@H]1C[C@H]1NCCc2cc(OC)c(OC)cc21 [Emetine],0.0212 ± 0.0078
6,CCOC(=O)c1cncn1[C@H](C)c1ccccc1 [Etomidate],0.103 ± 0.074
7,COc1ccc(OC)c(C(O)C(C)N)c1 (stereo not drawn) [Methoxamine HCl],0.167 ± 0.16
8,CCCN1C[C@H](CSC)C[C@@H]2c3cccc4[nH]cc(c34)C[C@H]21 [Pergolide mesylate],0.119 ± 0.1
9,CC(C)N(CCNC(=O)CN1CCCC1=O)C(C)C [Pramiracetam],0.093 ± 0.094
10,CN1[C@@H]2CC[C@H]1C[C@@H](OC(=O)[C@H](CO)c1ccccc1)C2 [Hyoscyamine (Daturine)],0.134 ± 0.11
11,c1ccc2c(c1)sc1ccccc12 [Dibenzothiophene],0.119 ± 0.088
12,Cc1cccc(C)c1NC1=NCCCS1 [Xylazine HCl],0.115 ± 0.058
13,NCC1(CC(=O)O)CCCCC1 [Gabapentin Hydrochloride],0.121 ± 0.074
14,CCCCCCCCCCCCCCCC[n+]1ccccc1 [Cetylpyridinium Chloride],0.212 ± 0.19
15,C[C@]12CC[C@H]3[C@@H](CC[C@@]45O[C@@H]4C(O)=C(C#N)C[C@]35C)[C@@H]1CC[C@@H]2O [Trilostane],0.134 ± 0.082
16,C#C[C@]1(O)CC[C@H]2[C@@H]3CCC4=CC(=O)CC[C@]4(C)[C@H]3CC[C@@]21C [Ethisterone],0.111 ± 0.11
17,CCC1(c2cccc(O)c2)CCCCN(C)C1 (stereo not drawn) [Meptazinol HCl],0.141 ± 0.072
18,CCN(C)C(=O)Oc1cccc([C@H](C)N(C)C)c1 [Rivastigmine tartrate (Exelon)],0.0965 ± 0.073
19,CN(C)C(=O)Oc1ccc[n+](C)c1 [Pyridostigmine Bromide (Mestinon)],0.0904 ± 0.051
20,O=P1(N(CCCl)CCCl)NCCCO1 (stereo not drawn) [Cyclophosphamide monohydrate],0.0834 ± 0.012
21,COc1cc2c(cc1OC)[C@@]13CCN4CC5=CCO[C@H]6CC(=O)N2[C@H]1[C@H]6[C@H]5C[C@H]43 [Brucine],0.197 ± 0.16
22,CC(C)NCC(O)c1ccccc1Cl (stereo not drawn) [Clorprenaline HCL],0.131 ± 0.096
23,C=C1CC[C@@]2(O)[C@H]3Cc4ccc(O)c5c4[C@@]2(CCN3CC2CC2)[C@H]1O5 [Nalmefene HCl],0.165 ± 0.14
24,CC(=O)O[C@@]12CO[C@@H]1C[C@@H](O)[C@@]1(C)C(=O)[C@H](O)C3=C(C)[C@@H](O)C[C@@](O)([C@@H](OC(=O)c4ccccc4)[C@H]21)C3(C)C [10-DAB (10-Deacetylbaccatin)],0.118 ± 0.066
25,CC[N+]1(C)CCCC(OC(=O)C(O)(c2ccccc2)c2ccccc2)C1 (stereo not drawn) [Pipenzolate Bromide],0.19 ± 0.18
26,[O-][n+]1ccccc1[S-].[O-][n+]1ccccc1[S-].[Zn+2] [Pyrithione zinc],0.309 ± 0.31
27,CC(C)C[C@H]1C(=O)N2CCC[C@H]2[C@]2(O)O[C@](NC(=O)[C@@H]3C=C4c5cccc6[nH]c(Br)c(c56)C[C@H]4N(C)C3)(C(C)C)C(=O)N12 [Bromocriptine Mesylate],0.185 ± 0.19
28,NCC1(CC(=O)O)CCCCC1 [Gabapentin (Neurontin)],0.125 ± 0.074

# — the supplement of paper PMC12542422
